# This is one part of the list.
# B1: Mincle (Bos taurus) (protein)
# chain: MNSSTSPASQTERRCFSFQLFSWAIAGTSILLLSACFITRCVVTYSIFQLCDEKKFQPPGDSMELSCYNDGSGSVKNCCPLKWFHFQSSCYLFSPDTMSWRASLKNCSSMGAHLVVINTQEEQEFLYYTKPRKKEFYIGLTDQVTEGQWQWVDGTPFTKSLSFWDAGEPNNLVIVEDCATIRDSSNPRQNWNDVPCFFNMFRVCEMPERKI
# Columns and labels:
# Assay in all cases: glycan array binding signal (z-score within array); higher = stronger binding
# Conditions in all cases: glycan notation: IUPAC condensed, linker removed
# Fuc(a1-2)Gal = target: Fuc(a1-2)Gal
# Summary of the method: (§1)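 From the Consortium for Functional Glycomics database, 3228 arrays were curated, keeping only those whose protein sequence was available. Binding is given as a within-array Z-score averaged across arrays sharing a protein sequence and across linkers. Negative Z-scores can be read as non-binding.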
# Fuc(a1-2)Gal(b1-3)GalNAc = target: Fuc(a1-2)Gal(b1-3)GalNAc
# Summary of the method: as §1
# [1] = target: Fuc(a1-2)Gal(b1-3)GalNAc(a1-3)[Fuc(a1-2)]Gal(b1-4)Glc
# Summary of the method: as §1
# [2] = target: Fuc(a1-2)Gal(b1-3)GalNAc(a1-3)[Fuc(a1-2)]Gal(b1-4)GlcNAc
# Summary of the method: as §1
# [3] = target: Fuc(a1-2)Gal(b1-3)GalNAc(b1-3)Gal
# Summary of the method: as §1
# [4] = target: Fuc(a1-2)Gal(b1-3)GalNAc(b1-3)Gal(a1-4)Gal(b1-4)Glc
# Summary of the method: as §1
# [5] = target: Fuc(a1-2)Gal(b1-3)GalNAc(b1-4)[Neu5Ac(a2-3)]Gal(b1-4)Glc
# Summary of the method: as §1
# Fuc(a1-2)Gal(b1-3)GlcNAc = target: Fuc(a1-2)Gal(b1-3)GlcNAc
# Summary of the method: as §1
# [6] = target: Fuc(a1-2)Gal(b1-3)GlcNAc(b1-2)Man(a1-3)[Fuc(a1-2)Gal(b1-3)GlcNAc(b1-2)Man(a1-6)]Man(b1-4)GlcNAc(b1-4)GlcNAc
# Summary of the method: as §1
# [7] = target: Fuc(a1-2)Gal(b1-3)GlcNAc(b1-2)Man(a1-3)[Fuc(a1-2)Gal(b1-3)GlcNAc(b1-2)Man(a1-6)]Man(b1-4)GlcNAc(b1-4)[Fuc(a1-6)]GlcNAc
# Summary of the method: as §1
# [8] = target: Fuc(a1-2)Gal(b1-3)GlcNAc(b1-3)Gal(b1-4)Glc
# Summary of the method: as §1
# [9] = target: Fuc(a1-2)Gal(b1-3)GlcNAc(b1-3)GalNAc
# Summary of the method: as §1
# [10] = target: Fuc(a1-2)Gal(b1-3)GlcNAc(b1-3)[Fuc(a1-2)Gal(b1-3)GlcNAc(b1-6)]GalNAc
# Summary of the method: as §1
# [11] = target: Fuc(a1-2)Gal(b1-3)GlcNAc(b1-3)[Gal(b1-4)GlcNAc(b1-6)]Gal(b1-4)Glc
# Summary of the method: as §1
# [12] = target: Fuc(a1-2)Gal(b1-3)GlcNAc(b1-3)[Neu5Ac(a2-6)Gal(b1-4)GlcNAc(b1-6)]Gal(b1-4)Glc
# Summary of the method: as §1
# [13] = target: Fuc(a1-2)Gal(b1-3)GlcNAc6S
# Summary of the method: as §1
# [14] = target: Fuc(a1-2)Gal(b1-3)[Fuc(a1-4)]GlcNAc
# Summary of the method: as §1
# [15] = target: Fuc(a1-2)Gal(b1-3)[Fuc(a1-4)]GlcNAc(b1-2)Man(a1-3)[Fuc(a1-2)Gal(b1-3)[Fuc(a1-4)]GlcNAc(b1-2)Man(a1-3)]Man(b1-4)GlcNAc(b1-4)GlcNAc
# Summary of the method: as §1
# [16] = target: Fuc(a1-2)Gal(b1-3)[Fuc(a1-4)]GlcNAc(b1-2)Man(a1-3)[Fuc(a1-2)Gal(b1-3)[Fuc(a1-4)]GlcNAc(b1-2)Man(a1-6)]Man(b1-4)GlcNAc(b1-4)[Fuc(a1-6)]GlcNAc(b1-4)[Fuc(a1-6)]GlcNAc
# Summary of the method: as §1
# [17] = target: Fuc(a1-2)Gal(b1-3)[Fuc(a1-4)]GlcNAc(b1-3)[Fuc(a1-3)[Gal(b1-4)]GlcNAc(b1-6)]Gal(b1-4)Glc
# Summary of the method: as §1
# [18] = target: Fuc(a1-2)Gal(b1-3)[Fuc(a1-4)]GlcNAc(b1-3)[Gal(b1-4)GlcNAc(b1-6)]Gal(b1-4)Glc
# Summary of the method: as §1
# Fuc(a1-2)Gal(b1-4)Glc = target: Fuc(a1-2)Gal(b1-4)Glc
# Summary of the method: as §1
# Fuc(a1-2)Gal(b1-4)Glc6S = target: Fuc(a1-2)Gal(b1-4)Glc6S
# Summary of the method: as §1
# Fuc(a1-2)Gal(b1-4)GlcNAc = target: Fuc(a1-2)Gal(b1-4)GlcNAc
# Summary of the method: as §1
# [19] = target: Fuc(a1-2)Gal(b1-4)GlcNAc(b1-2)Man
# Summary of the method: as §1
# [20] = target: Fuc(a1-2)Gal(b1-4)GlcNAc(b1-2)Man(a1-3)[Fuc(a1-2)Gal(b1-4)GlcNAc(b1-2)Man(a1-6)]Man(b1-4)GlcNAc(b1-4)GlcNAc
# Summary of the method: as §1
# [21] = target: Fuc(a1-2)Gal(b1-4)GlcNAc(b1-2)Man(a1-3)[Fuc(a1-2)Gal(b1-4)GlcNAc(b1-2)Man(a1-6)]Man(b1-4)GlcNAc(b1-4)[Fuc(a1-6)]GlcNAc
# Summary of the method: as §1
# [22] = target: Fuc(a1-2)Gal(b1-4)GlcNAc(b1-2)[Fuc(a1-2)Gal(b1-4)GlcNAc(b1-4)]Man(a1-3)[Fuc(a1-2)Gal(b1-4)GlcNAc(b1-2)Man(a1-6)]Man(b1-4)GlcNAc(b1-4)GlcNAc
# Summary of the method: as §1
# [23] = target: Fuc(a1-2)Gal(b1-4)GlcNAc(b1-3)Gal(b1-4)GlcNAc
# Summary of the method: as §1
# [24] = target: Fuc(a1-2)Gal(b1-4)GlcNAc(b1-3)Gal(b1-4)GlcNAc(b1-2)Man(a1-3)[Fuc(a1-2)Gal(b1-4)GlcNAc(b1-3)Gal(b1-4)GlcNAc(b1-2)Man(a1-6)]Man(b1-4)GlcNAc(b1-4)GlcNAc
# Summary of the method: as §1
# [25] = target: Fuc(a1-2)Gal(b1-4)GlcNAc(b1-3)Gal(b1-4)GlcNAc(b1-3)Gal(b1-4)GlcNAc
# Summary of the method: as §1
# [26] = target: Fuc(a1-2)Gal(b1-4)GlcNAc(b1-3)GalNAc
# Summary of the method: as §1
# [27] = target: Fuc(a1-2)Gal(b1-4)GlcNAc(b1-3)[Fuc(a1-2)Gal(b1-4)GlcNAc(b1-6)]GalNAc
# Summary of the method: as §1
# [28] = target: Fuc(a1-2)Gal(b1-4)GlcNAc(b1-3)[Fuc(a1-3)[Gal(b1-4)]GlcNAc(b1-6)]Gal(b1-4)Glc
# Summary of the method: as §1
# [29] = target: Fuc(a1-2)Gal(b1-4)GlcNAc(b1-6)GalNAc
# Summary of the method: as §1
# [30] = target: Fuc(a1-2)Gal(b1-4)GlcNAc6S
# Summary of the method: as §1
# [31] = target: Fuc(a1-2)Gal(b1-4)[Fuc(a1-3)]GlcNAc
# Summary of the method: as §1
# [32] = target: Fuc(a1-2)Gal(b1-4)[Fuc(a1-3)]GlcNAc(b1-2)Man(a1-3)[Fuc(a1-2)Gal(b1-4)[Fuc(a1-3)]GlcNAc(b1-2)Man(a1-6)]Man(b1-4)GlcNAc(b1-4)[Fuc(a1-6)]GlcNAc
# Summary of the method: as §1
# [33] = target: Fuc(a1-2)Gal(b1-4)[Fuc(a1-3)]GlcNAc(b1-2)[Fuc(a1-2)Gal(b1-4)[Fuc(a1-3)]GlcNAc(b1-4)]Man(a1-3)[Fuc(a1-2)Gal(b1-4)[Fuc(a1-3)]GlcNAc(b1-2)Man(a1-6)]Man(b1-4)GlcNAc(b1-4)GlcNAc
# Summary of the method: as §1
# [34] = target: Fuc(a1-2)Gal(b1-4)[Fuc(a1-3)]GlcNAc(b1-3)Gal(b1-4)[Fuc(a1-3)]GlcNAc
# Summary of the method: as §1
# [35] = target: Fuc(a1-2)Gal(b1-4)[Fuc(a1-3)]GlcNAc(b1-3)Gal(b1-4)[Fuc(a1-3)]GlcNAc(b1-3)Gal(b1-4)[Fuc(a1-3)]GlcNAc
# Summary of the method: as §1
# [36] = target: Fuc(a1-2)Gal(b1-4)[Fuc(a1-3)]GlcNAc(b1-3)GalNAc
# Summary of the method: as §1
# [37] = target: Fuc(a1-2)Gal(b1-4)[Fuc(a1-3)]GlcNAc(b1-3)[Neu5Ac(a2-6)Gal(b1-4)GlcNAc(b1-6)]Gal(b1-4)Glc
# Summary of the method: as §1
# [38] = target: Fuc(a1-2)Gal3S(b1-4)GlcNAc
# Summary of the method: as §1
# [39] = target: Fuc(a1-2)Gal6S(b1-3)GlcNAc
# Summary of the method: as §1
binder,measurement,setting,value
B1,glycan array binding signal (z-score),Fuc(a1-2)Gal,3.49
same,glycan array binding signal (z-score),Fuc(a1-2)Gal(b1-3)GalNAc,-0.583
same,glycan array binding signal (z-score),[1],-0.129
same,glycan array binding signal (z-score),[2],-0.319
same,glycan array binding signal (z-score),[3],-0.813
same,glycan array binding signal (z-score),[4],-0.285
same,glycan array binding signal (z-score),[5],0.045
same,glycan array binding signal (z-score),Fuc(a1-2)Gal(b1-3)GlcNAc,-0.435
same,glycan array binding signal (z-score),[6],1.77
same,glycan array binding signal (z-score),[7],-0.188
same,glycan array binding signal (z-score),[8],-0.17
same,glycan array binding signal (z-score),[9],-0.598
same,glycan array binding signal (z-score),[10],-1.06
same,glycan array binding signal (z-score),[11],0.118
same,glycan array binding signal (z-score),[12],-0.269
same,glycan array binding signal (z-score),[13],-0.632
same,glycan array binding signal (z-score),[14],-0.053
same,glycan array binding signal (z-score),[15],0.159
same,glycan array binding signal (z-score),[16],-0.356
same,glycan array binding signal (z-score),[17],0.245
same,glycan array binding signal (z-score),[18],-0.372
same,glycan array binding signal (z-score),Fuc(a1-2)Gal(b1-4)Glc,-0.027
same,glycan array binding signal (z-score),Fuc(a1-2)Gal(b1-4)Glc6S,0.141
same,glycan array binding signal (z-score),Fuc(a1-2)Gal(b1-4)GlcNAc,-0.301
same,glycan array binding signal (z-score),[19],0.135
same,glycan array binding signal (z-score),[20],1.4
same,glycan array binding signal (z-score),[21],0.207
same,glycan array binding signal (z-score),[22],-0.188
same,glycan array binding signal (z-score),[23],-0.721
same,glycan array binding signal (z-score),[24],-0.406
same,glycan array binding signal (z-score),[25],0.153
same,glycan array binding signal (z-score),[26],-0.268
same,glycan array binding signal (z-score),[27],-0.228
same,glycan array binding signal (z-score),[28],1.09
same,glycan array binding signal (z-score),[29],-0.168
same,glycan array binding signal (z-score),[30],-0.32
same,glycan array binding signal (z-score),[31],0.139
same,glycan array binding signal (z-score),[32],0.219
same,glycan array binding signal (z-score),[33],1.16
same,glycan array binding signal (z-score),[34],0.341
same,glycan array binding signal (z-score),[35],0.087
same,glycan array binding signal (z-score),[36],0.822
same,glycan array binding signal (z-score),[37],-0.411
same,glycan array binding signal (z-score),[38],-0.533
same,glycan array binding signal (z-score),[39],-0.618

# Shown with bars between the fields: entries from further up
binder | measurement | setting | value
B1 | glycan array binding signal (z-score) | [38] | -0.533
same | glycan array binding signal (z-score) | [39] | -0.618
